Reference: article PMC2914225, “Fusion of GFP to the M.EcoKI DNA methyltransferase produces a new probe of Type I DNA restriction and modification enzymes” (Biochemical and Biophysical Research Communications, 2010)
These are yes or no findings as the source states them, for the method shown. Some entries that bind do so weakly or less than the wild type. Where a sequence is shown, tags or fusion partners need not be part of it.

What was measured:
[1] = molecular target: T1, HsdS DNA sequence-specificity subunit of M.EcoKI with enhanced green fluorescent protein fused to its C-terminus (E. coli) (UniProt P05719); experiment: co-purification; HsdM and HsdS-EGFP co-expressed in E. coli BL21(DE3) and purified together by His-tag affinity, gel filtration and anion exchange chromatography
T1 sequence: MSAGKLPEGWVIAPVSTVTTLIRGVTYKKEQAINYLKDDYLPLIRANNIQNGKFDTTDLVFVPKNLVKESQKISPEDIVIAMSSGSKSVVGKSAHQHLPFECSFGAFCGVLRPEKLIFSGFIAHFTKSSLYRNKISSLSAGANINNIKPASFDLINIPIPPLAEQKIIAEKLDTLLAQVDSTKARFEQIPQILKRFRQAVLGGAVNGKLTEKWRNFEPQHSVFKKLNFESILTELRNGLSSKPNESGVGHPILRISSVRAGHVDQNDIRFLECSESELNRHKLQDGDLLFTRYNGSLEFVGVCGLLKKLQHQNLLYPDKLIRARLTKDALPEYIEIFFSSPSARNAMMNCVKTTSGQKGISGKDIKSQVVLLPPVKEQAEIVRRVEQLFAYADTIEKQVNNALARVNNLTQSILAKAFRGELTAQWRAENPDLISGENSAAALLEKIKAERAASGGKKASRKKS

[2] = molecular target: T2, GFP-MTase (M.EcoKI DNA methyltransferase, M2S1 form, with enhanced green fluorescent protein fused to the C-terminus of HsdS) (E. coli) (UniProt P08957+P05719); experiment: FRET or BRET; time-resolved fluorescence decay of the GFP donor (time correlated single photon counting), 1:1 mixtures of labelled ocr with GFP-MTase, excitation at 405 nm, emission at 510 nm, magic angle; both purified
T2 sequence 1: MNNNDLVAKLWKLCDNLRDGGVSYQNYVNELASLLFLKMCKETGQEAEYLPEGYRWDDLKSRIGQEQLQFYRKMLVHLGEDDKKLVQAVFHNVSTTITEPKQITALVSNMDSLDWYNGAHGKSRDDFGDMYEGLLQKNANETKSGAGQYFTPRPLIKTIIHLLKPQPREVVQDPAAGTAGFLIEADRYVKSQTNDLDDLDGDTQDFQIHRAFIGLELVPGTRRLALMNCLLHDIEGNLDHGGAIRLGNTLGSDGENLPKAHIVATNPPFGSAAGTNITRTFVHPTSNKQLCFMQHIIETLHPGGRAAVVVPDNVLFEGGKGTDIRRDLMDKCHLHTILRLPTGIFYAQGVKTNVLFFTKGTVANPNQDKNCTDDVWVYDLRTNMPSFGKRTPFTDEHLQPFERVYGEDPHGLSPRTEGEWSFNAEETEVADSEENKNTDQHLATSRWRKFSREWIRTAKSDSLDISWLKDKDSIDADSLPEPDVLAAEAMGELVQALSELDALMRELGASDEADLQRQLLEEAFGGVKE
T2 sequence 2: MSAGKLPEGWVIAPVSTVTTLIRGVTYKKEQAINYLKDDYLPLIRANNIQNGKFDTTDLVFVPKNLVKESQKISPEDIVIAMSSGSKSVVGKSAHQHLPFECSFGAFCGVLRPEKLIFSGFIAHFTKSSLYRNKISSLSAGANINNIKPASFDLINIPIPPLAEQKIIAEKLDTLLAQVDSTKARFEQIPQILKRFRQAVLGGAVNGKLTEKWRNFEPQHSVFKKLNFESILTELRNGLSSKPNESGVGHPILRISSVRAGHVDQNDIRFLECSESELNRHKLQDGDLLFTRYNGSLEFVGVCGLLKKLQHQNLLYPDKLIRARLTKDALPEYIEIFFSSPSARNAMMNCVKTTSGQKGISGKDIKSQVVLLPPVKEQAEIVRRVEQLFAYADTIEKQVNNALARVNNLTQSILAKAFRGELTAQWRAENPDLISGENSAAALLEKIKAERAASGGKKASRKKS

[3] = molecular target: T2, GFP-MTase (M.EcoKI DNA methyltransferase, M2S1 form, with enhanced green fluorescent protein fused to the C-terminus of HsdS) (E. coli); experiment: FRET or BRET; steady state fluorescence emission scans, 500 nM GFP-MTase (donor) with 500 nM Dylight549-labelled mutant ocr (acceptor), excitation at 395 nm; 20 mM Tris-HCl pH 8.0, 6 mM MgCl2, 7 mM 2-mercaptoethanol; both purified

B1: HsdM modification subunit of M.EcoKI (enzyme, UniProt P08957 1-529)
chain: MNNNDLVAKLWKLCDNLRDGGVSYQNYVNELASLLFLKMCKETGQEAEYLPEGYRWDDLKSRIGQEQLQFYRKMLVHLGEDDKKLVQAVFHNVSTTITEPKQITALVSNMDSLDWYNGAHGKSRDDFGDMYEGLLQKNANETKSGAGQYFTPRPLIKTIIHLLKPQPREVVQDPAAGTAGFLIEADRYVKSQTNDLDDLDGDTQDFQIHRAFIGLELVPGTRRLALMNCLLHDIEGNLDHGGAIRLGNTLGSDGENLPKAHIVATNPPFGSAAGTNITRTFVHPTSNKQLCFMQHIIETLHPGGRAAVVVPDNVLFEGGKGTDIRRDLMDKCHLHTILRLPTGIFYAQGVKTNVLFFTKGTVANPNQDKNCTDDVWVYDLRTNMPSFGKRTPFTDEHLQPFERVYGEDPHGLSPRTEGEWSFNAEETEVADSEENKNTDQHLATSRWRKFSREWIRTAKSDSLDISWLKDKDSIDADSLPEPDVLAAEAMGELVQALSELDALMRELGASDEADLQRQLLEEAFGGVKE
[1]
  binding: binds

B2: Dylight549-labelled ocr E117C mutant protein (natural protein, phage T7, UniProt P03775 1-117, looked up)
chain: MAMSNMTYNNVFDHAYEMLKENIRYDDIRDTDDLHDAIHMAADNAVPHYYADIFSVMASEGIDLEFEDSGLMPDTKDVIRILQARIYEQLTIDLWEDAEDLLNEYLEEVEEYEEDEC
modifications: Dylight549 maleimide on the introduced cysteine at 117 (labelling level 86.3%)
notes: gene 0.3 protein, ocr, from phage T7; one cysteine and so one acceptor label in each subunit; also called E117C ocr; E117E (as printed once); source: site directed mutagenesis and protein purification as described previously [17]
[2]
  binding: binds
[3]
  binding: binds
